Laboratory results taken from paper doi:10.1101/2022.01.06.474281.
No constants are given. Whether binding was seen depends on the method and setting. For some assays here: In cells and extracts the contact can be indirect. Some binding calls cover weakened binding; strength is not graded here. Sequences can lack the tags named with a protein.

T1: RETINOBLASTOMA RELATED (RBR), Arabidopsis, yeast two-hybrid fusion in pDEST32 (Arabidopsis thaliana) (UniProt Q9LKZ3)
T1 sequence: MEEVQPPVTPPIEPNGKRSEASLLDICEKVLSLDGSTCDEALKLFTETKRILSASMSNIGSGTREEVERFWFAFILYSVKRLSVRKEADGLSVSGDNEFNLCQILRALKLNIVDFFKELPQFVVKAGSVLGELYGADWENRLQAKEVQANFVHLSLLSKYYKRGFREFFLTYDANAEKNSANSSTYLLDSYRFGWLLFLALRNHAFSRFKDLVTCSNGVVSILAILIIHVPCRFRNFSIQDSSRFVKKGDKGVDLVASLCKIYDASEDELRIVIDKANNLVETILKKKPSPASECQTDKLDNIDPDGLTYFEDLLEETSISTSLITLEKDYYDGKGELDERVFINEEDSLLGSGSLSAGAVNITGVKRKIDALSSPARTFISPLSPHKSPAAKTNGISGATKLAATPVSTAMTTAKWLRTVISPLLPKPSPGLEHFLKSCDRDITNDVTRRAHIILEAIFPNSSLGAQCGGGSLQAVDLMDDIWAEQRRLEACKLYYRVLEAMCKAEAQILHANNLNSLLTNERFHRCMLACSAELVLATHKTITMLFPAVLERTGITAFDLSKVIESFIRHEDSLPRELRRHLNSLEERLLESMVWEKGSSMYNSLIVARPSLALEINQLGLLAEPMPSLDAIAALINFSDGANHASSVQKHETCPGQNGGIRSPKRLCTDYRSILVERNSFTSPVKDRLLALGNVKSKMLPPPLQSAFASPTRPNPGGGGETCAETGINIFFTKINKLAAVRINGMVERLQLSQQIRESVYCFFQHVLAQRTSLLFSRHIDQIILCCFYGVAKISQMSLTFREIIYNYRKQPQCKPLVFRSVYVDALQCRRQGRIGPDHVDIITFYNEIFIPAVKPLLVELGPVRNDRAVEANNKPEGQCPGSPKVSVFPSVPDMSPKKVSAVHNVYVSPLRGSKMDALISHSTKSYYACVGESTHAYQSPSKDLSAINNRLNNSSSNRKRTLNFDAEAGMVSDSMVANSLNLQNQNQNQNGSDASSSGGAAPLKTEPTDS

T2: RETINOBLASTOMA RELATED (RBR), Arabidopsis, BiFC fusion (Arabidopsis thaliana) (UniProt Q9LKZ3)
T2 sequence: T1 sequence

B1: SUVR2, Arabidopsis, yeast two-hybrid fusion (protein, UniProt Q9FNC7 1-717)
chain: MAPNLHIKKAFMAMRAMGIEDARVKPVLKNLLALYEKNWELIAEDNYRVLADAIFDSHEDQAIQESEEKKADEVKEDEGCAAEVDRGKKKLHESIEDDEDVMAESDRPLKRLRRRGEGGSALASPSLGSPTLEGPSINDEENAPILLPYHPVPIENDHDAGELILTKVEPITNMPLSSIPDSVDRGDSSMLEIDKSNGHVEEKAGETVSTADGTTNDISPTTVARFSDHKLAATIEEPPALELASSASGEVKINLSFAPATGGSNPHLPSMEELRRAMEEKCLRSYKILDPNFSVLGFMNDICSCYLDLATNGRDSANQLPKNLPFVTTNIDALKKSAARMAYTSQASNDVVEICSNEHMRDAENGAVGDSMALVVVPECQLSADEWRLISSVGDISLGKETVEIPWVNEVNDKVPPVFHYIAQSLVYQDAAVKFSLGNIRDDQCCSSCCGDCLAPSMACRCATAFNGFAYTVDGLLQEDFLEQCISEARDPRKQMLLYCKECPLEKAKKEVILEPCKGHLKRKAIKECWSKCGCMKNCGNRVVQQGIHNKLQVFFTPNGRGWGLRTLEKLPKGAFVCELAGEILTIPELFQRISDRPTSPVILDAYWGSEDISGDDKALSLEGTHYGNISRFINHRCLDANLIEIPVHAETTDSHYYHLAFFTTREIDAMEELTWDYGVPFNQDVFPTSPFHCQCGSDFCRVRKQISKGKNVKKRA
B2: DRD1, Arabidopsis, yeast two-hybrid fusion (protein, UniProt Q9SIW2 1-888)
chain: MGFVYIVMTGYYKNVHKRKQNQVDDGPEAKRVKSSAKVIDYSNPFAVSNMLEALDSGKFGSVSKELEEIADMRMDLVKRSIWLYPSLAYTVFEAEKTMDNQQVVEGVINLDDDDDDDTDVEKKALCVVPSSSEIVLLDSDDEDNERQRPMYQFQSTLVQHQKNQGDVTPLIPQCSFEEVDLGRGKEMPSAIKAIVEGQTSRGKVLPIENGVVNEKGVYVGVEEDDSDNESEAADEDLGNIWNEMALSIECSKDVARETSHKEKADVVEDCEHSFILKDDMGYVCRVCGVIEKSILEIIDVQFTKAKRNTRTYASETRTKRFGESDNELKFSEEGLMIGGLAAHPTHAAEMKPHQIEGFQFLCSNLVADDPGGCIMAHAPGSGKTFMIISFMQSFLAKYPQAKPLVVLPKGILPTWKKEFVRWQVEDIPLLDFYSAKAENRAQQLSILKQWMEKKSILFLGYQQFSTIVCDDTTDSLSCQEILLKVPSILILDEGHTPRNEDTNLLQSLAQVQTPRKVVLSGTLYQNHVKEVFNILNLVRPKFLKLDTSKSAVKRILAYTPCDVRGRLTGSNSDMASMFNETVEHTLQKSEDFTVKIKVIQDLREMTKKVLHYYKGDFLDELPGLADFTVVLNLSPKQLNEVKKLRREKRKFKVSAVGSAIYLHPKLKVFSDKSDDVSDTTMDEMVEKLDLNEGVKAKFFLNLINLCDSAGEKLLVFSQYLIPLKFLERLAALAKGWKLGKEVFVLTGNTSSEQREWSMETFNSSPDAKIFFGSIKACGEGISLVGASRILILDVPLNPSVTRQAIGRAFRPGQKKMVHAYRLIAGSSPEEEDHNTCFKKEVISKMWFEWNEYCGYQNFEVETIDVDEAGDTFLESPALREDIRVLYKR
B3: DOMAINS … 2 (DRM2), Arabidopsis, yeast two-hybrid fusion (protein, UniProt Q9M548 1-626)
chain: MVIWNNDDDDFLEIDNFQSSPRSSPIHAMQCRVENLAGVAVTTSSLSSPTETTDLVQMGFSDEVFATLFDMGFPVEMISRAIKETGPNVETSVIIDTISKYSSDCEAGSSKSKAIDHFLAMGFDEEKVVKAIQEHGEDNMEAIANALLSCPEAKKLPAAVEEEDGIDWSSSDDDTNYTDMLNSDDEKDPNSNENGSKIRSLVKMGFSELEASLAVERCGENVDIAELTDFLCAAQMAREFSEFYTEHEEQKPRHNIKKRRFESKGEPRSSVDDEPIRLPNPMIGFGVPNEPGLITHRSLPELARGPPFFYYENVALTPKGVWETISRHLFEIPPEFVDSKYFCVAARKRGYIHNLPINNRFQIQPPPKYTIHDAFPLSKRWWPEWDKRTKLNCILTCTGSAQLTNRIRVALEPYNEEPEPPKHVQRYVIDQCKKWNLVWVGKNKAAPLEPDEMESILGFPKNHTRGGGMSRTERFKSLGNSFQVDTVAYHLSVLKPIFPHGINVLSLFTGIGGGEVALHRLQIKMKLVVSVEISKVNRNILKDFWEQTNQTGELIEFSDIQHLTNDTIEGLMEKYGGFDLVIGGSPCNNLAGGNRVSRVGLEGDQSSLFFEYCRILEVVRARMRGS
B4: DRD1, Arabidopsis, BiFC fusion (protein, UniProt Q9SIW2 1-888)
chain: B2 chain
B5: DOMAINS … 2 (DRM2), Arabidopsis, BiFC fusion (protein, UniProt Q9M548 1-626)
chain: B3 chain

Columns and labels:
[1] = biological target: T1, RETINOBLASTOMA RELATED (RBR), Arabidopsis, yeast two-hybrid fusion in pDEST32 (Arabidopsis thaliana); assay: two-hybrid
[2] = biological target: T2, RETINOBLASTOMA RELATED (RBR), Arabidopsis, BiFC fusion (Arabidopsis thaliana); assay: split reporter

Binder | binding [1] | binding [2]
B1 | binds | 
B2 | binds weakly | 
B3 | binds weakly | 
B4 |  | binds
B5 |  | binds
